Test results as given in patent US7279548.
These are yes or no findings as the source states them, for the method shown. Some binding calls cover weakened binding; strength is not graded here.

Amino acid sequences for entries named in this document (tags omitted). Residues count along the entry.
UniProt P46935, residues 249-493: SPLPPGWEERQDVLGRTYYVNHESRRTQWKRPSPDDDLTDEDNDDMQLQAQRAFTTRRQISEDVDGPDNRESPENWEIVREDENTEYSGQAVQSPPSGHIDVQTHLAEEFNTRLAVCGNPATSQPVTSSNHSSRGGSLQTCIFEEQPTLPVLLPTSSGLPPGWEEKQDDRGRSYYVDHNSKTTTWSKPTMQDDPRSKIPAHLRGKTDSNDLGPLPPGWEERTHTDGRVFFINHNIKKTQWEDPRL

Experiments:
[1] = target: mouse Nedd-4 (portions expressed by 5 cDNA clones) (mouse) (UniProt P46935); assay: filter-lift screen of cDNA expression library with biotinylated peptide-SA-AP complex
[2] = target: WWP1.2 WW domain expressed as GST fusion protein (human); assay: ELISA cross affinity mapping, GST-WW fusion
[3] = target: WWP2.3 WW domain expressed as GST fusion protein (human); assay: ELISA cross affinity mapping, GST-WW fusion
[4] = target: WWP3 WW domain expressed as GST fusion protein (human); assay: ELISA cross affinity mapping, GST-WW fusion
[5] = target: WWP3 WW domain expressed as GST fusion protein (human); assay: cross affinity mapping, GST-WW fusion
[6] = target: WWP1.1 WW domain expressed as GST fusion protein (human); assay: cross affinity mapping, GST-WW fusion
[7] = target: WWP1.4 WW domain expressed as GST fusion protein (human); assay: cross affinity mapping, GST-WW fusion
[8] = target: WWP2.1 WW domain expressed as GST fusion protein (human); assay: cross affinity mapping, GST-WW fusion
[9] = target: WWP2.2 WW domain expressed as GST fusion protein (human); assay: cross affinity mapping, GST-WW fusion
[10] = target: WWP2.4 WW domain expressed as GST fusion protein (human); assay: cross affinity mapping, GST-WW fusion

Binder: YVQPPPPPYPGPM (N-terminal biotin) [QP peptide (biotin-…)]
- binding [1]: binds

Binder: SGSGPGTPAPPYTVGPGY (biotinylated) [WBP-1-Pro2 (alanine substitution of the second proline of the PPPPY motif of WBP-1)]
- binding [2]: binds
- binding [3]: binds

Binder: SGSGYVQPPAPPYPGPM (biotinylated) [WBP-2A-Pro3 (alanine substitution of the second proline of the PPPPY motif of WBP-2A)]
- binding [4]: binds

Binder: PGTPPPNYDSLRL (N-terminal biotin) [ENaCβ peptide (biotin-…)]
- binding [5]: binds

Binder: PGTPPPKYNTLRL (N-terminal biotin) [ENaCγ peptide (biotin-…)]
- binding [5]: binds

Binder: NRLDLPPYETFED (biotinylated) [Peptide bWW059 (wild-type PPPPY-like motif of the HECT domain of WWP4)]
- binding [6]: binds
- binding [7]: binds
- binding [8]: binds
- binding [9]: binds
- binding [10]: binds
